Data on 39 compounds can be found in the supplement of paper PMC7024190.

Where a name gives a salt, the structure may show the parent alone. The list shows a part of the results. Repeats in this data set agree poorly, so a single value says little.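 The cells were human embryonic kidney cells carrying a Renilla luciferase gene, driven by the HSV-TK promoter, on a plasmid put in briefly by transfection. This is the first-round screen of about ten thousand compounds, looking for ones that raise reporter output.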

This test has as its system HEK 293FT. Put plainly: log relative Renilla luciferase luminescence (reporter expression vs reference, reference not stated) (log (base not stated)); higher = higher recombinant reporter expression. Conditions: 10 µM; time after transfection 48 h.
For the compound `CCC(=O)NS(=O)(=O)c1ccc(-c2c(-c3ccccc3)noc2C)cc1`, the log was found to be 0.172. As for `C[C@@H]1C[C@H]2[C@@H]3C[C@H](F)C4=CC(=O)C(Cl)=C[C@]4(C)[C@@]3(F)[C@@H](O)C[C@]2(C)[C@@]1(O)C(=O)CO`, the log was -0.0284. On to `Cc1nc2ccccn2c(=O)c1CCN1CCC(C(=O)c2ccc(F)cc2)CC1`, for which the log was -0.0897.

Take `Nc1nnc(-c2cccc(Cl)c2Cl)c(N)n1`: the log worked out at 0.338. With `CNCCCC12CCC(c3ccccc31)c1ccccc12` [Maprotilline HCl], the log is 0.147. On to `O=c1cnn([C@@H]2O[C@H](CO)[C@@H](O)[C@H]2O)c(=O)[nH]1`, for which the log turned out to be 0.103. On to `C[C@@H]1C[C@H]2[C@@H]3CCC4=CC(=O)C=C[C@]4(C)[C@@]3(F)[C@@H](O)C[C@]2(C)[C@H]1C(=O)CO`, for which the log is -0.0368. In the case of `CC(C(O)c1ccc(O)cc1)N1CCC(Cc2ccccc2)CC1` (centres undefined) [Ifenprodil], the log was determined as 0.115.

Turning to `NC(N)=NC(=O)c1nc(Cl)c(N)nc1N`, the log is 0.0618. Regarding `CN1[C@@H]2CC[C@H]1C[C@@H](OC(=O)c1c[nH]c3ccccc13)C2`, the log was -0.284. Turning to `O=C1Nc2ccc(Cl)cc2[C@@](C#CC2CC2)(C(F)(F)F)O1`, the log was -0.245. For the compound `OC[C@H]1O[C@@H](n2cnc3c(N[C@H]4CCC[C@@H]4O)ncnc32)[C@@H](O)C1O` (stereo partly drawn) [Adenosine, N-(2-hydroxycyclopentyl)-, (1S-trans)- [CAS]], the log came to 0.0941.

As to `CC(C)c1nc(CN(C)C(=O)N[C@H](C(=O)N[C@@H](Cc2ccccc2)C[C@H](O)[C@H](Cc2ccccc2)NC(=O)OCc2cncs2)C(C)C)cs1`, the log is -0.478. With `CCc1ccc(CCOc2ccc(CC3SC(=O)NC3=O)cc2)nc1` (centres undefined) the figure was -0.126; with `COC(=O)CCc1ccc(OCC(O)CNC(C)C)cc1` (centres undefined), -0.0963. Turning to `CC(C(=O)O)c1ccc(CC2CCCC2=O)cc1` (centres undefined), the log was -0.147. Take `O=[N+]([O-])c1cccc2cn[nH]c12`: the log was determined as 0.155.

Consider `C[C@]12CC[C@@H]3c4ccc(OS(=O)(=O)O)cc4CC[C@H]3[C@@H]1CCC2=O`, for which the log is 0.0685.

For the compound `CCS(=O)(=O)CCn1c([N+](=O)[O-])cnc1C`, the log is 0.0883. The result for `CC1(C)O[C@@H]2[C@@H](CO[C@@]3(COS(N)(=O)=O)OC(C)(C)O[C@@H]23)O1` reads -0.0361; that for `COCCOC(=O)C1=C(C)NC(C)=C(C(=O)OC(C)C)C1c1cccc([N+](=O)[O-])c1` (centres undefined), 0.0133; that for `OCCN1CCN(CCCN2c3ccccc3Sc3ccc(C(F)(F)F)cc32)CC1`, 0.115. As for `COc1nc(C)nc(Cl)c1NC1=NCCN1`, the log is -0.174. As for `CN1CCN(C2=Nc3ccccc3Oc3ccc(Cl)cc32)CC1`, the log was determined as 0.241. The result for `Nc1ncnc2c1ncn2[C@@H]1O[C@H](CO)C[C@@H]1O` [3'-deoxydenosine] reads 0.229; that for `Fc1ccc([C@@H]2CCNC[C@H]2COc2ccc3c(c2)OCO3)cc1` [Paroxetine], -0.0129.

For `COc1cc(-c2ccc(=O)[nH]n2)ccc1OC(F)F`, the log amounted to 0.184. Consider `Clc1ccc(CO/N=C(\Cn2ccnc2)c2ccc(Cl)cc2Cl)c(Cl)c1`, for which the log was -0.28. With `CNS(=O)(=O)Cc1ccc2[nH]cc(CCN(C)C)c2c1`, the log was -0.151. Take `CN(C)CCCSc1ccccc1NC(=O)/C=C/c1ccccc1` [Cinanserin]: the log is 0.112.

As to `C[N+]1(C)CCC(OC(=O)C(O)(c2ccccc2)C2CCCC2)C1` (centres undefined), the log is -0.0272.

`O=C(CCCN1CCC(O)(c2ccc(Cl)cc2)CC1)c1ccc(F)cc1` [Haloperidol]: the log was 0.141. For `CCOc1cc(N)c(Cl)cc1C(=O)NCC1CN(Cc2ccc(F)cc2)CCO1` (centres undefined), the log was -0.165. With `N[C@@H](C(=O)N[C@@H]1C(=O)N2C(C(=O)O)=C(CSc3cn[nH]n3)CS[C@H]12)c1ccc(O)cc1` the figure was 0.00982. Take `CN(C)CCC(c1ccc(Cl)cc1)c1ccccn1` (centres undefined) [Chlorpheniramine]: the log is -0.0697. Consider `CC[N+](C)(CC)CCOC(=O)C(O)(c1ccccc1)C1CCCCC1` (centres undefined), for which the log came out at 0.175.

`NC(=O)c1cccnc1`: the log was -0.0247.

In the case of `COc1ccccc1N1CCN(CC(O)COc2cccc3ccccc23)CC1` (centres undefined), the log is -0.117.

On to `C[C@H]1O[C@H](O[C@H]2[C@H](O)[C@@H](O)[C@@H](O[C@H]3[C@H](O)[C@@H](O)C(O)O[C@@H]3CO)O[C@@H]2CO)[C@H](O)[C@@H](O)[C@@H]1N[C@H]1C=C(CO)[C@@H](O)[C@H](O)[C@H]1O` (some centres undefined), for which the log was -0.138.
